Results deposited as PubChem BioAssay AID1224828 (NIAID, 2016)

- Assay: 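Regulators linking TLR4 signalling to p65 nuclear translocation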 (primary screen)
- Cells: mouse RAW264.7 G9 macrophage reporter cells (GFP-p65, Tnf promoter-mCherry)
- Reagents: siRNA pool against mouse genes, 100 nM
- Time to read-out: 2 days siRNA transfection, then 40 min LPS before fixation
- Challenge: LPS (Salmonella minnesota R595) at 10 ng/ml
- Read-out: 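Microscopy ratio of nuclear to perinuclear-ring GFP-p65 signal, scaled to the plate median; gene score is the average of two replicate robust z-scores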
- Direction: p65 translocation robust z-score: higher = more nuclear NF-kappaB p65 after LPS than the plate median; nuclear/cytoplasmic p65 ratio: higher = more nuclear NF-kappaB p65
- Rule for the call: 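Called active when z exceeds 3.3 or falls under -1.56 (median of Tlr4 controls), giving activity score of at least 50; no calls for control wells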
- Meaning of the calls: active = hit (p65 shift raised or lowered); inactive = no clear change
Shown is one part, drawn at random, of about 17,000 reagents. 762 of all reagents (4.5%) count as active. 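Active calls include both raised and lowered p65 entry, mostly lowered; wells with fewer than 50 cells lack a z-score.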 The raw values are shown without normalisation. Entries without a mark were called inactive.

Silencing of Pskh1 came out at: nuclear/cytoplasmic p65 ratio, rep 1 = 1.83; nuclear/cytoplasmic p65 ratio, rep 2 = 1.57; low cell count flag fewer than 50 cells per well; well left out of scoring.
Ttc12 scored nuclear/cytoplasmic p65 ratio, rep 1 = 1.5; nuclear/cytoplasmic p65 ratio, rep 2 = 1.11; low cell count flag fewer than 50 cells per well; well left out of scoring.
Pappa gave p65 translocation robust z-score 0.22; nuclear/cytoplasmic p65 ratio, rep 1 = 1.56; nuclear/cytoplasmic p65 ratio, rep 2 = 1.36; low cell count flag enough cells to score.
Zfp322a scored p65 translocation robust z-score 0.32; nuclear/cytoplasmic p65 ratio, rep 1 = 1.41; nuclear/cytoplasmic p65 ratio, rep 2 = 1.33; low cell count flag enough cells to score.

Single entries from the entries so far.
For “low cell count flag”, Pskh1 has fewer than 50 cells per well; well left out of scoring
Result of Pappa in “p65 translocation robust z-score”: 0.22

More entries follow.
Depletion of Bin3 gave: p65 translocation robust z-score -2.48 (active); nuclear/cytoplasmic p65 ratio, rep 1 = 1.08; nuclear/cytoplasmic p65 ratio, rep 2 = 1.18; low cell count flag enough cells to score.
With knock-down of Hgh1, the screen gave p65 translocation robust z-score 0.68; nuclear/cytoplasmic p65 ratio, rep 1 = 1.41; nuclear/cytoplasmic p65 ratio, rep 2 = 1.73; low cell count flag enough cells to score.
After knock-down of Col16a1, the screen gave p65 translocation robust z-score 0.9; nuclear/cytoplasmic p65 ratio, rep 1 = 1.62; nuclear/cytoplasmic p65 ratio, rep 2 = 1.47; low cell count flag enough cells to score.
Silencing of Trex2 gave: p65 translocation robust z-score 0.95; nuclear/cytoplasmic p65 ratio, rep 1 = 1.66; nuclear/cytoplasmic p65 ratio, rep 2 = 1.62; low cell count flag enough cells to score.
Against Map3k1 the deposit lists p65 translocation robust z-score 0.09; nuclear/cytoplasmic p65 ratio, rep 1 = 1.68; nuclear/cytoplasmic p65 ratio, rep 2 = 1.41; low cell count flag enough cells to score.
After knock-down of A730020M07Rik the results were nuclear/cytoplasmic p65 ratio, rep 1 = 1.29; nuclear/cytoplasmic p65 ratio, rep 2 = 1.48; low cell count flag fewer than 50 cells per well; well left out of scoring.
Silencing of Ap3b1 came out at: p65 translocation robust z-score -0.31; nuclear/cytoplasmic p65 ratio, rep 1 = 1.57; nuclear/cytoplasmic p65 ratio, rep 2 = 1.58; low cell count flag enough cells to score.
Knock-down of Akr1cl gave: p65 translocation robust z-score -1.13; nuclear/cytoplasmic p65 ratio, rep 1 = 1.15; nuclear/cytoplasmic p65 ratio, rep 2 = 1.09; low cell count flag enough cells to score.
